No constants are given. Whether binding was seen depends on the method and setting. Some binding calls cover weakened binding; strength is not graded here. Tags and fused reporters may be left off the sequences shown.
Target: GPC3蛋白 (实施例6 ELISA包被) (UniProt P51654)
Assay: ELISA, GPC3 coated, HRP-mouse anti-His detection

Chains of the proteins cited; added tags and fusions are not shown. Residues count along the entry.
UniProt P51654, residues 25-559: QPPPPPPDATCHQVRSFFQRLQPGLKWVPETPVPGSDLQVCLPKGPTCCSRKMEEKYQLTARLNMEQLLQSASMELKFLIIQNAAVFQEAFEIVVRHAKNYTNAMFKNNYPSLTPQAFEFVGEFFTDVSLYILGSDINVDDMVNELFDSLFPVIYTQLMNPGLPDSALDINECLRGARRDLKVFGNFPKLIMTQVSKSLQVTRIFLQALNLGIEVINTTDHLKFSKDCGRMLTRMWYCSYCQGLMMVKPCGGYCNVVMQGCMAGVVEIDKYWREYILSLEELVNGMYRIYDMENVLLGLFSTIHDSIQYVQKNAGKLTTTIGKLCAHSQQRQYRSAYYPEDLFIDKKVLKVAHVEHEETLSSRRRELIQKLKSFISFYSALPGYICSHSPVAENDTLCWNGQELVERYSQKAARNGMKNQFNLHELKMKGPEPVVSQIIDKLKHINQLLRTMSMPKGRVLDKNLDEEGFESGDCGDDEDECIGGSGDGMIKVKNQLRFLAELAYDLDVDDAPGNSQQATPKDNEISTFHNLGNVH

binding | Binder
binds | HuA5.2 (scFv, C末端6x His, 大肠杆菌表达) (scFv) scFv: EVQLVESGGGLVQPGGSLRLSCAASGFTFNRYCMGWVRQAPGKGLEWVAGIDSDSGGTDYGAAVKGRATISRDNAKNSVYLQMNSLRAEDTAVYYCAKSAYGGWCGSRVAPWIDAWGQGTLVTVSSGGGGSSSELTQDPAVSVALGQTVRITCSGGGSYGWFQQKSPGQAPVTVIYDNDKRPSDIPSRFSGSASGSTASLTITGAQAEDEADYYCGSSENSYVGHVAIFGGGTKLTVLHHHHHH
binds | H-V78L (scFv, name in Kabat numbering) scFv: EVQLVESGGGLVQPGGSLRLSCAASGFTFNRYCMGWVRQAPGKGLEWVAGIDSDSGGTDYGAAVKGRATISRDNAKNSLYLQMNSLRAEDTAVYYCAKSAYGGWCGSRVAPWIDAWGQGTLVTVSSGGGGSSSELTQDPAVSVALGQTVRITCSGGGSYGWFQQKSPGQAPVTVIYDNDKRPSDIPSRFSGSASGSTASLTITGAQAEDEADYYCGSSENSYVGHVAIFGGGTKLTVLHHHHHH
binds | H-G35S (scFv, name in Kabat numbering) scFv: EVQLVESGGGLVQPGGSLRLSCAASGFTFNRYCMSWVRQAPGKGLEWVAGIDSDSGGTDYGAAVKGRATISRDNAKNSVYLQMNSLRAEDTAVYYCAKSAYGGWCGSRVAPWIDAWGQGTLVTVSSGGGGSSSELTQDPAVSVALGQTVRITCSGGGSYGWFQQKSPGQAPVTVIYDNDKRPSDIPSRFSGSASGSTASLTITGAQAEDEADYYCGSSENSYVGHVAIFGGGTKLTVLHHHHHH
binds | H-A67F (scFv, name in Kabat numbering) scFv: EVQLVESGGGLVQPGGSLRLSCAASGFTFNRYCMGWVRQAPGKGLEWVAGIDSDSGGTDYGAAVKGRFTISRDNAKNSVYLQMNSLRAEDTAVYYCAKSAYGGWCGSRVAPWIDAWGQGTLVTVSSGGGGSSSELTQDPAVSVALGQTVRITCSGGGSYGWFQQKSPGQAPVTVIYDNDKRPSDIPSRFSGSASGSTASLTITGAQAEDEADYYCGSSENSYVGHVAIFGGGTKLTVLHHHHHH
